Patent US9055743B2, “Alpha, beta-unsaturated imines” (BAYER INTELLECTUAL PROPERTY GMBH, priority 2010, dated 2015)
Some of these results come from one statement about several compounds together.

System: brown dog ticks (Rhipicephalus sanguineus, fully sensitive laboratory strain)
Experiment: Contact test against ticks in vitro (RHIPSA contact)
Format: in vivo
Conditions: 500 g/ha, after 48 h
Procedure: Contact Test Against Ticks In Vitro (RHIPSA Contact)
An amount of 0.9 mg of active compound is weighed out, and 1 ml of acetone is added.
Of this acetone solution, either 250 μl are transferred directly into roll-necked test tubes or an aliquot is diluted with 4 parts of acetone 1:5. For its part, 250 μl of this dilution are pipetted into roll-necked test tubes, or the dilution is diluted further, etc., until the desired number of dilution steps is reached.
The roll-necked test tubes containing the solution of the active compound in acetone are immediately coated in a fume cupboard by 2 h of swing rotation at 30 rpm. After evaporation of the solvent, the active compound contained in the acetone gives, at the highest concentration tested, an active compound content of 500 g/ha (or […]) on the surface of the test tube.
5-10 Adult brown dog ticks (Rhipicephalus sanguineus, fully sensitive laboratory strain) are transferred into the test tubes prepared in this manner, and the test tubes are closed with a plastic roll-necked lid provided with fine holes.
The test tubes are stored vertically at room temperature and humidity for 24 or 48 h in the dark. After 24 and 48 h, the activity of the active compound applied is determined by comparison with an acetone-treated control. To this end, the ticks are shaken down to the bottom of the test tube, and the test tubes are heated on a hotplate to at most 50° C. for at most 10 minutes. Here, an observed normal activity (speedy recovery from a resting position and climbing of the test tube wall (heat avoidance)) for all ticks corresponds to 0% activity, a strongly restricted or uncoordinated (knock-down) movement or death of all ticks corresponds to 100% activity.

Row | Compound | activity against the brown dog tick
1 | Cc1ccc(N=C2/C(=C/Sc3ccccc3)CCc3ccccc32)cc1 [Example 1-1] | at least 80%
2 | Fc1ccc(N=C2/C(=C/Sc3ccccc3)CCc3ccccc32)cc1 [Example 1-3, 4-Fluoro-N-[(2E)-2-[(phenylsulphanyl)methylene]-3,4-dihydronaphthalen-1(2H)-ylidene]aniline] | at least 80%
3 | Cc1ccc(N=C2C(=CSc3ccc(F)cc3)CCc3ccccc32)cc1 [Example 1-9] | at least 80%
4 | Cc1ccc(N=C2C(=CSc3ccc(F)cc3)CCc3cc(F)ccc32)cc1 [Example 1-16] | at least 80%
5 | Cc1ccc(N=C2C(=CSc3ccc(F)cc3)C(C)(C)c3ccccc32)cc1 [Example 1-21] | at least 80%
6 | Cc1ccc(N=C2C(=CSc3ccc(F)cc3)CSc3ccccc32)cc1 [Example 1-35] | at least 80%
